Measurements reported in PubChem BioAssay AID1259304 (Sanger Institute, 2017).
Assay: 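Kinase partners that kill colorectal cancer cells together with three anchor drugs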 (secondary deconvolution rescreen of primary hits). Cell system: HT115 human colorectal cancer cells. Knock-down reagent: single siRNA against human genes. Treatment: anchor drugs BYL719 at 1 µM, cetuximab at 5 µg/ml or trametinib at 10 nM, each set against DMSO vehicle. Measured: 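Replicate-averaged viability as a fraction of non-targeting control, with a drug-siRNA synergy score from joint versus separate effects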. Scale: synergy score with BYL719: higher = stronger synthetic lethal interaction with BYL719; synergy score with cetuximab: higher = stronger synthetic lethal interaction with cetuximab; synergy score with trametinib: higher = stronger synthetic lethal interaction with trametinib; viability, siRNA with trametinib and viability, siRNA with DMSO vehicle: higher = more cells surviving. Call rule: 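Called active when the synergy score is above 0.10 for any of BYL719, cetuximab or trametinib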. Calls: active = synergy with at least one anchor drug; inactive = no synergy with any anchor drug.
In all, the deposit lists 160 reagents; below is a part drawn at random. 88 of all reagents (55%) count as active. 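Four siRNAs per gene, each called on its own in one cell line; calls are not confirmed gene-level hits.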 Viability is capped at 1. No sequences are given here. Not stated in the record: the amount of reagent, the time to read-out.

no.	gene symbol	PubChem SID	synergy score with BYL719	synergy score with cetuximab	synergy score with trametinib	viability, siRNA with trametinib (fraction of control)	viability, siRNA with DMSO vehicle (fraction of control)	Outcome
1	CSNK2A2 (GeneID 1459)	SID56476699	-0.0113	-0.0205	0.0992	0.875	1	inactive
2	CSNK2A2 (GeneID 1459)	SID56476700	0.0149	0.0318	0.172	0.221	0.403	active
3	CSNK2A2 (GeneID 1459)	SID56476701	-0.0986	-0.0987	-0.0492	0.653	0.619	inactive
4	CSNK2A2 (GeneID 1459)	SID56476702	0.0338	0.105	0.24	0.172	0.423	active
5	CDK6 (GeneID 1021)	SID56475655	0.0208	0.0821	0.271	0.649	0.944	active
6	CDK6 (GeneID 1021)	SID56475656	0.0178	0.0483	0.203	0.738	0.966	active
7	CDK6 (GeneID 1021)	SID56475657	0.122	0.0958	0.0883	0.83	0.942	active
8	CDK6 (GeneID 1021)	SID56475658	0.059	0.192	0.253	0.722	1	active
9	SYK (GeneID 6850)	SID56475471	0.0424	-0.0674	0.0771	0.5	0.592	inactive
10	SYK (GeneID 6850)	SID56475472	-0.078	0.0817	0.0911	0.651	0.762	inactive
11	SYK (GeneID 6850)	SID56475473	0.0911	-0.0429	0.257	0.343	0.616	active
12	SYK (GeneID 6850)	SID56475474	0.0362	-0.116	0.0755	0.818	0.917	inactive
13	SYNCRIP (GeneID 10492)	SID134270601	-0.00759	0.0585	0.132	0.443	0.591	active
14	SYNCRIP (GeneID 10492)	SID134270602	-0.0278	0.00527	0.185	0.676	0.884	active
15	SYNCRIP (GeneID 10492)	SID134270603	0.00969	0.0716	0.0941	0.407	0.514	inactive
16	SYNCRIP (GeneID 10492)	SID134270604	-0.0634	-0.0148	-0.0131	0.711	0.716	inactive
17	BMPR2 (GeneID 659)	SID56477247	-0.143	-0.0506	0.0437	0.85	0.917	inactive
18	BMPR2 (GeneID 659)	SID56477249	-0.101	-0.137	0.0266	0.559	0.601	inactive
19	BMPR2 (GeneID 659)	SID56477250	-0.15	-0.144	-0.0638	0.842	0.798	inactive
20	BMPR2 (GeneID 659)	SID135611748	-0.08	-0.0205	0.0507	0.924	1	inactive
21	MPP3 (GeneID 4356)	SID56478207	-0.0942	-0.0585	0.0185	0.815	0.855	inactive
22	MPP3 (GeneID 4356)	SID56478208	0.0273	0.0482	0.0385	0.539	0.592	inactive
23	MPP3 (GeneID 4356)	SID56478209	0.224	0.251	0.427	0.291	0.736	active
24	MPP3 (GeneID 4356)	SID56478210	-0.00131	0.0978	0.276	0.315	0.606	active
25	PAK1 (GeneID 5058)	SID56475940	0.0593	0.0331	0.197	0.534	0.75	active
26	PAK1 (GeneID 5058)	SID56475941	-0.123	-0.0555	0.0329	0.505	0.552	inactive
27	PAK1 (GeneID 5058)	SID56475942	-0.0111	0.00827	0.137	0.484	0.637	active
28	PAK1 (GeneID 5058)	SID135611339	-0.0764	-0.0719	-0.0212	0.835	0.835	inactive
29	COASY (GeneID 80347)	SID56477723	-0.102	-0.0586	-0.00425	0.618	0.629	inactive
30	COASY (GeneID 80347)	SID56477724	-0.00349	-0.085	0.0552	0.527	0.597	inactive
31	COASY (GeneID 80347)	SID56477725	-0.122	0.161	0.124	0.373	0.51	active
32	COASY (GeneID 80347)	SID56477726	-0.0244	0.00771	0.0663	0.273	0.348	inactive
33	PFKFB3 (GeneID 5209)	SID56477763	0.13	0.0211	0.0939	0.802	0.919	active
34	PFKFB3 (GeneID 5209)	SID56477764	0.122	0.169	0.279	0.586	0.887	active
35	PFKFB3 (GeneID 5209)	SID56477765	-0.162	-0.0176	-0.0155	0.869	0.875	inactive
36	PFKFB3 (GeneID 5209)	SID135612150	-0.132	0.00632	-0.0123	0.743	0.75	inactive
37	HUNK (GeneID 30811)	SID56476395	0.0398	-0.0197	0.0526	0.626	0.696	inactive
38	HUNK (GeneID 30811)	SID56476396	-0.00692	0.0509	0.276	0.248	0.537	active
39	HUNK (GeneID 30811)	SID56476397	-0.0317	0.0368	0.157	0.696	0.875	active
40	HUNK (GeneID 30811)	SID56476398	0.0425	0.0442	0.34	0.557	0.921	active
41	MAPK4 (GeneID 5596)	SID56476079	-0.0359	-0.0747	0.00483	0.902	0.931	inactive
42	MAPK4 (GeneID 5596)	SID56476080	-0.115	-0.0701	-0.00459	0.502	0.51	inactive
43	MAPK4 (GeneID 5596)	SID56476081	0.0888	-0.0344	0.133	0.745	0.901	active
44	MAPK4 (GeneID 5596)	SID56476082	0.0236	0.122	0.118	0.296	0.425	active
45	CAMK2N1 (GeneID 55450)	SID134276917	0.0113	-0.113	0.0537	0.519	0.587	inactive
46	CAMK2N1 (GeneID 55450)	SID134276918	0.764	0.0431	0.141	0.834	1	active
47	CAMK2N1 (GeneID 55450)	SID134276919	0.159	0.149	0.0912	0.715	0.827	active
48	CAMK2N1 (GeneID 55450)	SID134276920	-0.136	-0.0848	-0.113	0.723	0.626	inactive
49	IRAK3 (GeneID 11213)	SID56476711	-0.0617	0.018	0.189	0.331	0.534	active
50	IRAK3 (GeneID 11213)	SID56476712	-0.183	0.117	0.11	0.803	0.937	active
51	IRAK3 (GeneID 11213)	SID56476713	0.163	-0.00334	0.16	0.614	0.795	active
52	IRAK3 (GeneID 11213)	SID56476714	-0.0548	-0.00376	0.143	0.832	1	active

Taken from above:
Value for PFKFB3 (GeneID 5209) [SID56477763] in “viability, siRNA with DMSO vehicle (fraction of control)”: 0.919
CAMK2N1 (GeneID 55450) [SID134276918], synergy score with cetuximab: 0.0431
MAPK4 (GeneID 5596) [SID56476079], Outcome: inactive
Entry for MPP3 (GeneID 4356) [SID56478207] in “synergy score with cetuximab”: -0.0585
HUNK (GeneID 30811) [SID56476398], viability, siRNA with DMSO vehicle (fraction of control): 0.921
CAMK2N1 (GeneID 55450) [SID134276917], synergy score with BYL719: 0.0113
